Source: patent US20240034762A1 (YALE UNIVERSITY, published 2024)
No constants are given. Whether binding was seen depends on the method and setting. Some entries that bind do so weakly or less than the wild type. Where a sequence is shown, tags or fusion partners need not be part of it.

Legend:
[1] = biological target: T1, soluble extracellular domain of human α-Klotho (aa 1-980) fused to a 6xHis tag (human) (UniProt Q9UEF7); assay: BLI; figure legend
T1 sequence: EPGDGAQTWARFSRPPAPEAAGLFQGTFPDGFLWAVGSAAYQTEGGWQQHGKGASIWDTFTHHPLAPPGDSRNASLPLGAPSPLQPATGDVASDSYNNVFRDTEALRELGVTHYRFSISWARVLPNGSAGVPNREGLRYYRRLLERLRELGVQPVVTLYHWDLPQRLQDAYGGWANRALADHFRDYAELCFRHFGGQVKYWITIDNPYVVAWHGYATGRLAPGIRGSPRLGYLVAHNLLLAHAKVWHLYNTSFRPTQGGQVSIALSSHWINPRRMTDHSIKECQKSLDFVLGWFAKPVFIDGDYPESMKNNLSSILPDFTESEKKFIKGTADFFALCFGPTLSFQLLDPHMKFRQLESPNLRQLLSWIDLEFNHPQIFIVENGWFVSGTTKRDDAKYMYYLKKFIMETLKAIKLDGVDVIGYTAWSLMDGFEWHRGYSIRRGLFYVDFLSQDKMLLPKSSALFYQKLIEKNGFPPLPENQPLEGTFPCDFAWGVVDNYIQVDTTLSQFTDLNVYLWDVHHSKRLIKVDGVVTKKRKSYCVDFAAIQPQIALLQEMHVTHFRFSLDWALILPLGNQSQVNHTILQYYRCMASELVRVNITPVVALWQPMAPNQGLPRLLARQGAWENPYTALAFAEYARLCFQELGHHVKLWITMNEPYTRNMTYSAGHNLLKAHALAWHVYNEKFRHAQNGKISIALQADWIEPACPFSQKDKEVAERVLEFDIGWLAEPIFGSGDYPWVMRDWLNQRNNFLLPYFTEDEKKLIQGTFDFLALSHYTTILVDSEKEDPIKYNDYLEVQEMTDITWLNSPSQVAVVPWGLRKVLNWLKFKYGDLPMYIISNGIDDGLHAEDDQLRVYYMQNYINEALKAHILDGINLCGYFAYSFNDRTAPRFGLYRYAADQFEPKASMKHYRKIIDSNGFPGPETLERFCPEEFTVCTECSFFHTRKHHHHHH

[2] = biological target: T1, soluble extracellular domain of human α-Klotho (aa 1-980) fused to a 6xHis tag (human); assay: BLI sensorgrams; GST fusion captured on anti-GST biosensor, dipped into sKLA at 6.25, 12.5, 25, 50, 100 and 200 nM
[3] = biological target: T1, soluble extracellular domain of human α-Klotho (aa 1-980) fused to a 6xHis tag (human); assay: BLI; GST fusions on anti-GST sensors, sKLA as analyte
[4] = biological target: T1, soluble extracellular domain of human α-Klotho (aa 1-980) fused to a 6xHis tag (human); assay: BLI

Measured: binding

SAEDNSPMASDPLGVVRGGRVNTHAGGTGPEG (peptide, not shown: a dimerising Fc or GST) [GST fusion of repeat 2 (R2) of the human FGF23 C-terminal tail]
binds: all assays above

SAEDDSERDPLNVLKPRARMTPAPAS (peptide, not shown: a dimerising Fc or GST) [GST fusion of repeat 1 (R1, aa 180-205) of the human FGF23 C-terminal tail]
binds: all assays above
